This assay deals with MdNup62-NLUC (apple (Malus × domestica)). In words: split reporter; luciferase (LUC) complementation experiment of MdNup62 and MdNup54 (Figure S1); constructs and host not told for this pair.

Sequences of proteins named here, by UniProt entry; tags and fusion partners are left off. A change or cut given only in a name is not applied to a line headed by its entry.
UniProt A0A7U3QAH2: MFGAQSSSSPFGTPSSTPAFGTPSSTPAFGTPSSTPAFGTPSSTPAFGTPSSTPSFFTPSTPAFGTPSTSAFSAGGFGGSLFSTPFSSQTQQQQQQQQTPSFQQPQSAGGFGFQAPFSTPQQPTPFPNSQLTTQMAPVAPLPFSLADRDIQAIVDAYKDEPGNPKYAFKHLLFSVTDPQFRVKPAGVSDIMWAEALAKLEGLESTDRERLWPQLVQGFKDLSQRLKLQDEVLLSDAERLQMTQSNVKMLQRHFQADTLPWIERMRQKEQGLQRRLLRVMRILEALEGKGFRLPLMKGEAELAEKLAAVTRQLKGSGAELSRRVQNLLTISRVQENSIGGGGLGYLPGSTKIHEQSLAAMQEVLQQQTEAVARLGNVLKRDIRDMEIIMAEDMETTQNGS

These are yes or no findings as the source states them, for the method shown. Binding seen in cells or lysates may run through a third protein. Binding can be weak; no strength is given.

Regarding MdNup54 (from UniProt A0A7U3QAH2), the binding result is given as “binds”.

These data come from paper PMC9251929.
